A short description of this assay: qHTS Assay for Lipid Storage Modulators in Drosophila S3 Cells.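 On cell number change: cells counted by Cell Tracker Red CMTPX staining in the red channel.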 As to conditions: BODIPY lipid droplet fluorescence, 18-24 h; for cell number change: measured here: cell count max response, cells fed with added oleic acid. An outline of the steps:
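Drosophila S3 cells got compounds at several concentrations plus oleic acid (400 uM solution). Laser-scanning cytometry with 488 nm excitation read lipid droplets at 500-530 nm and cells at 575-640 nm. Percent activity was relative to 20 uM Triacsin C.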

The mark [1] stands for this setting: measured here: lipid fluorescence (Fed channel) AC50, cells fed with added oleic acid.
The mark [2] stands for this setting: measured here: cell number channel AC50, cells fed with added oleic acid.

The other results are listed elsewhere or left out. These are further read-outs of the screen, such as a control signal, another cell line or another target. No call is given for them. Compounds called inactive in the main read-out are mostly missing here. Words in brackets tell the shape of the fitted curve; partial curves, single points and poor fits give uncertain potencies.

`CCSc1nc2ccccc2[nH]1`: the cell number change was 6.43%. Also, the half-maximal activity concentration (AC50) under setting [1] was 2310 nM [falling, partial curve]. For the compound `CCn1nc(C(=O)N2CCc3ccccc32)c2ccccc2c1=O`, the cell number change came to 11.8%. The AC50 under setting [1] is 184 nM [falling, full curve, poor fit]. Turning to `CC1(c2ccc3c(c2)OCCCO3)NC(=O)N(CC(=O)Nc2cccc(C#N)c2)C1=O` (stereo not drawn), the cell number change is -11.6%. The AC50 under setting [1] was 1840 nM [rising, partial curve, poor fit]. As for `COc1cc2nc(N3CCN(C(=O)OCc4ccccc4)[C@H](C(=O)NC(C)(C)C)C3)nc(N)c2cc1OC`, the cell number change was found to be 19.7%. Moreover, the AC50 under setting [1] was 2310 nM [rising, partial curve]. Consider `COc1cc(NC(=O)CSc2nnc(-c3cc(C)on3)o2)cc(OC)c1`, for which the cell number change worked out at 34.6%. Also, the AC50 under setting [2] was 7.31 nM [rising, full curve, poor fit]. As to `COc1ccc(/C=N/NC(=O)CCc2n[nH]c(=O)[nH]c2=O)cc1OC`, the cell number change came to 3.32%. Besides, the AC50 under setting [1] is 65.1 nM [falling, full curve, poor fit]. As for `CCn1c(SCc2ccc(Cl)cc2Cl)nc2nc3c(cc2c1=O)CCCC3`, the cell number change is 3.72%. In addition, under setting [1], the AC50 was 820 nM [rising, full curve, poor fit].

Consider `Cc1cccc(CS(=O)(=O)Cc2ccc(C(=O)NCC3CCCO3)o2)c1` (stereo not drawn), for which the cell number change amounted to 128%. Further, the concentration at half-maximal activity (AC50) under setting [2] is 20600 nM [rising, single point]. With `CCOC(=O)COc1c(/C=N\OC)cc(Cl)cc1OC`, the cell number change was -80.4%. The AC50 under setting [2] was 29100 nM [falling, single point]. As to `CC(C)(C)N1CC(c2nc3ccccc3n2Cc2ccc(Cl)cc2)CC1=O` (stereo not drawn), the cell number change turned out to be 23.7%. Further, the AC50 under setting [2] is 326 nM [rising, full curve, poor fit]. For `Cc1ccc(C(c2c(C)nn(-c3ccccc3)c2N)c2c(C)nn(-c3ccccc3)c2N)cc1`, the cell number change was determined as 19.9%. For `O=C(NCCn1cc(SCC(=O)N2CCOCC2)c2ccccc21)c1c(F)cccc1F`, the cell number change came out at 17.9%. With `O=c1nc(SCc2c(F)cccc2Cl)nc(-c2ccccc2)[nH]1`, the cell number change was 6.25%. For the same compound, under setting [2], the AC50 is 820 nM [rising, single point]. For `O=C(N/N=C1\C/C(=N\NC(=O)c2ccncc2)c2ccccc21)c1ccncc1`, the cell number change worked out at 29.9%. In addition, the AC50 under setting [1] is 9200 nM [rising, partial curve, poor fit]. For the compound `Cc1c(C(=O)O)cccc1-n1c(C)cc(/C=N/NC(=O)c2cc3ccccc3o2)c1C`, the cell number change was found to be 14.9%. Moreover, under setting [2], the AC50 was 731 nM [rising, partial curve, poor fit]. As to `CC(CC(=O)NC1CCCC1)c1ccccc1` (stereo not drawn), the cell number change came to 9.6%. For the same compound, under setting [2], the AC50 is 103 nM [falling, full curve]. With `Cn1c(O)c(C2=c3ccccc3=NC2=O)[nH]c1=S`, the cell number change was found to be 110%. Also, the AC50 under setting [2] was 16400 nM [rising, partial curve]. Moreover, under setting [1], the AC50 is 29100 nM [rising, single point].

Turning to `O=[N+]([O-])c1ccc(S(=O)(=O)Nc2ccc(-c3ccc(N4CCCC4)nn3)cc2)cc1`, the cell number change worked out at 42%. Besides, the AC50 under setting [2] was 6510 nM [rising, full curve]. Also, the AC50 under setting [1] was 6510 nM [rising, single point]. With `COC(=O)c1ccc(-c2noc(CN(Cc3ccccn3)CC3CCCO3)n2)cc1` (stereo not drawn), the cell number change was -13%. Consider `COc1ccc([C@H]2CC(=O)C=C(c3cc(C=O)ccc3OC)C2)cc1`, for which the cell number change was -13.3%. In the case of `CC(CCc1ccccc1)NC(=O)C(=O)NCc1ccccc1` (stereo not drawn), the cell number change worked out at 33.3%. Moreover, under setting [2], the AC50 was 29100 nM [rising, single point]. Also, the AC50 under setting [1] is 2310 nM [rising, single point]. `COc1ccc(N2CCN(C(CNS(=O)(=O)c3cccs3)c3cccnc3)CC2)cc1` (stereo not drawn): the cell number change was found to be 56.5%. Under setting [2], the AC50 is 2060 nM [rising, partial curve, poor fit]. Moreover, the AC50 under setting [1] is 206 nM [rising, full curve].

`COc1ccc(Cn2nnnc2C(c2ccc(C)cc2)N2CCN(C3CCCC3)CC2)cc1` (stereo not drawn): the cell number change was -1.52%. Under setting [1], the AC50 is 18.4 nM [falling, full curve]. Regarding `CC(C)CC(=O)N1CCC(O)(CS(=O)(=O)Cc2ccccc2Cl)CC1`, under setting [2], the AC50 is 4110 nM [falling, single point]. Turning to `COCCNC(C)C(=O)C12CC3CC(CC(C3)C1)C2` (stereo not drawn), the cell number change was -2.71%. Turning to `Nc1nonc1-n1nnc(C(=O)N/N=C/c2ccc(OCc3ccccc3)cc2)c1COc1ccc(F)cc1`, the cell number change amounted to 5.22%. Further, the AC50 under setting [1] is 731 nM [rising, partial curve]. As for `COc1cc(NC(=O)CSc2nc3[nH]ncc3c(=O)n2-c2ccccc2C)cc(OC)c1OC`, the cell number change came to 32%. For the same compound, the AC50 under setting [2] was 4610 nM [rising, partial curve]. Moreover, the AC50 under setting [1] is 4610 nM [rising, partial curve]. Take `Cc1ccc(NC(=O)C2C3C=CC4(O3)C2C(=O)N(CCN2CCOCC2)C4C(=O)NC2CCCCC2)cc1C` (stereo not drawn): the cell number change is 39.5%. Besides, the AC50 under setting [1] was 29100 nM [rising, partial curve]. On to `CC1(c2ccc(Cl)cc2Cl)NC(=O)N(CC(=O)NC2CCCCC2)C1=O` (stereo not drawn), for which the cell number change came out at 2.26%. The concentration at half-maximal activity (AC50) under setting [1] was 130 nM [rising, full curve, poor fit]. Regarding `Fc1ccc(COc2ccc(Br)cc2CNCC2CCCO2)cc1` (stereo not drawn), the cell number change was 32.4%. In addition, under setting [2], the AC50 was 20600 nM [rising, single point]. Further, under setting [1], the half-maximal activity concentration (AC50) was 29100 nM [rising, single point]. As for `COc1cc(Cl)c(NC2=CC(=O)C(=O)c3ccccc32)c(OC)c1`, the AC50 under setting [2] is 164 nM [falling, full curve]. Turning to `COc1ccc(N(CC(=O)NCc2ccco2)S(C)(=O)=O)cc1`, the AC50 under setting [2] is 580 nM [rising, single point]. With `COc1cccc(/C=N/NC(=O)CNC(=O)c2ccc(S(=O)(=O)N3CCOCC3)cc2)c1OC`, the cell number change was found to be 5.79%. Also, the AC50 under setting [2] was 731 nM [falling, single point]. Further, the AC50 under setting [1] was 146 nM [rising, full curve, poor fit].

On to `c1ccc(-c2nnc(CN3CCN(C(c4ccccc4)c4ccccc4)CC3)o2)cc1`, for which the cell number change is -8.16%.

Take `COc1ccc(S(=O)(=O)NNC(=O)Nc2ccc(C)cc2C)c(OC)c1`: the cell number change is -8.91%. In addition, under setting [1], the AC50 was 580 nM [rising, single point]. `CNc1c(N)n(Cc2ccccc2)c(=O)[nH]c1=O`: the cell number change stood at 43%. Consider `CC1(C)CC(=O)C2=C(C1)NC1=C(C(=O)c3ccccc31)C2c1ccc(O)cc1` (stereo not drawn), for which the cell number change was 3.85%. Also, the AC50 under setting [1] was 184 nM [rising, full curve, poor fit].

For `COc1cc(C(=O)Nc2ccc(C(=O)O)cc2)ccc1OC(C)=O`, the concentration at half-maximal activity (AC50) under setting [2] is 920 nM [falling, partial curve, poor fit] and the AC50 under setting [1] is 731 nM [falling, partial curve, poor fit].

One may read the AC50 as the concentration at which the activity in the assay is half-maximal.

Source of the values: PubChem BioAssay AID2685 (National Center for Advancing Translational Sciences (NCATS), 2010).
